This is an account of results in PubChem BioAssay AID2685 (National Center for Advancing Translational Sciences (NCATS), 2010).

Molecules are shown by their SMILES. This is one part of the list. These are further read-outs of the screen, such as a control signal, another cell line or another target. No call is given for them. Most of these compounds were active or inconclusive in the main read-out, so they are no random draw. Words in brackets tell the shape of the fitted curve; partial curves, single points and poor fits give uncertain potencies.

This experiment in a line: qHTS Assay for Lipid Storage Modulators in Drosophila S3 Cells.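 As to cell number change: cells counted by Cell Tracker Red CMTPX staining in the red channel.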 Conditions: BODIPY lipid droplet fluorescence, 18-24 h; for cell number change: measured here: cell count max response, cells fed with added oleic acid. In short, it runs like this:
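Laser-scanning cytometry quantifies lipid droplet accumulation (500–530 nm total intensity; droplet/cell object ratio) in oleic acid-fed (400 uM added) Drosophila S3 cells treated with a concentration series. 20 uM Triacsin C defined 100% inhibition.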
(In general: In qHTS, concentration-response curves come from the screen itself.)

The mark [1] stands for this setting: measured here: cell number channel AC50, cells fed with added oleic acid.
Where [2] appears, read: measured here: lipid fluorescence (Fed channel) AC50, cells fed with added oleic acid.

As a reminder, the AC50 is the concentration at which the activity in the assay is half-maximal. A high value points to activity only at high concentration.

As to `CC(=O)c1ccc(Nc2nc(NCCO)nc(OC(C(F)(F)F)C(F)(F)F)n2)cc1`, the cell number change is -32.2%. Moreover, the AC50 under setting [1] was 29.1 µM [falling, single point]. Also, the AC50 under setting [2] was 29.1 µM [falling, single point].

In the case of `COC(=O)CCSCC(=O)Nc1ccc(S(=O)(=O)N2CCOCC2)cc1OC`, the cell number change was -21.2%. Also, under setting [1], the AC50 is 0.731 µM [falling, single point]. Moreover, under setting [2], the AC50 was 6.51 µM [rising, single point]. As for `CC1C/C(=C/c2ccco2)C(=O)/C(=C/c2ccco2)C1` (stereo unspecified), the cell number change stood at 9.31%. Under setting [2], the AC50 was 32.6 µM [falling, partial curve]. Consider `O=C(c1cccs1)N1CCCN(c2ncnc3scc(-c4ccccc4)c23)CC1`, for which the cell number change was -7.27%. Also, the AC50 under setting [1] was 1.84 µM [falling, partial curve].

On to `O=C(O)c1cc2n(n1)C(C(F)(F)F)CC(c1ccccc1)N2` (stereo unspecified), for which the cell number change worked out at 8.67%. On to `COc1ccc(C=C(C(C)=O)C(C)=O)cc1OC`, for which the cell number change was -35.6%. Also, under setting [1], the AC50 was 8.2 µM [falling, partial curve]. Moreover, under setting [2], the AC50 was 9.2 µM [falling, partial curve, poor fit]. Consider `Cc1ccc(S(=O)(=O)Oc2ccccc2/C=N/N=C(N)N)cc1`, for which the cell number change is -59.6%. Further, the AC50 under setting [1] was 29.1 µM [falling, partial curve, poor fit]. Besides, the AC50 under setting [2] is 3.66 µM [falling, partial curve]. For `COC(=O)c1sccc1NC(=O)Nc1ccc(C)cc1C`, the cell number change is -54%. Also, the half-maximal activity concentration (AC50) under setting [1] was 20.6 µM [falling, single point]. Consider `Cn1cnc([N+](=O)[O-])c1NCc1ccccc1`, for which the cell number change was -14.2%. In the case of `COc1ccc(C(=O)COC(=O)c2ccc(OC)c(OC)c2)cc1OC`, the cell number change was -10.9%. Moreover, the AC50 under setting [2] is 0.58 µM [rising, single point].

In the case of `COc1cccc(CNc2nc3nc(C)cc(C)n3n2)c1`, the cell number change amounted to 23.2%. In addition, the half-maximal activity concentration (AC50) under setting [2] is 14.6 µM [rising, partial curve]. In the case of `c1ccc(CCCN2CCN(c3ccccn3)CC2)cc1`, the cell number change was found to be 15%. Besides, the AC50 under setting [2] was 0.461 µM [rising, full curve, poor fit]. For `COc1ccc(CN2CCNC(=O)C2CC(=O)N(C)CC2CCOCC2)cc1C` (stereo unspecified), the cell number change is -1.38%. Moreover, under setting [2], the AC50 is 6.51 µM [falling, single point].

With `COc1cccc(NC(=O)CCN2C(=O)c3cccc([N+](=O)[O-])c3C2=O)c1`, the cell number change came to 18%. For the same compound, the AC50 under setting [2] is 23.1 µM [falling, single point].

On to `COc1ccc(Cn2c(=O)sc3ccccc32)cc1`, for which the cell number change is 7.11%. Moreover, the half-maximal activity concentration (AC50) under setting [2] is 3.66 µM [rising, partial curve, poor fit]. Take `O=C(NCCCN1CCOCC1)c1cc(-c2ccccc2F)no1`: the cell number change is -2.95%. For the same compound, the AC50 under setting [2] is 6.51 µM [rising, single point]. On to `CC(C)C(=O)N(Cc1ccccc1)S(=O)(=O)c1ccc2c(c1)oc(=O)n2C`, for which the cell number change was -16.5%. Also, under setting [2], the AC50 was 29.1 µM [falling, single point]. As for `CC(=O)Nc1nnc(Cc2ccccc2)s1`, the cell number change worked out at 17.5%. Take `CCc1ccc(NC(=O)C2=CC(c3ccc(OC)cc3)=NS(=O)(=O)N2C)cc1`: the AC50 under setting [2] is 6.51 µM [falling, partial curve].

`COc1ccc(NC(=O)CSc2nnnn2C2CCCC2)c(OC)c1`: the cell number change is -13.3%. For `Cc1ccc(/C=C/C(=O)Nn2cnnc2)cc1`, the cell number change is -24.9%. Besides, under setting [1], the AC50 was 0.291 µM [falling, full curve, poor fit]. For the same compound, the AC50 under setting [2] was 0.58 µM [falling, full curve]. For the compound `Cc1cc(C(=O)NC2CCCN(Cc3ccccc3F)C2)n[nH]1` (stereo unspecified), the cell number change was 2.35%. For `FC(F)Oc1ccc(C2N=C(c3ccccc3)NO2)cc1` (stereo unspecified), the cell number change was 12.1%.

In the case of `Cc1ccc(S(=O)(=O)N(C)C)cc1NC(=O)CN1C(=O)NC2(CCCCCC2)C1=O`, the cell number change was -15.8%. The AC50 under setting [1] is 6.51 µM [rising, single point].

In the case of `CCOc1cccc(N2C(=O)CC(NCc3ccc(S(N)(=O)=O)cc3)C2=O)c1` (stereo unspecified), the cell number change is -0.517%. Further, the AC50 under setting [2] is 3.26 µM [falling, single point]. For the compound `O=C(Cc1cccc2ccccc12)Nc1cc(C(=O)O)cc(C(=O)O)c1`, the cell number change is 8.47%. Further, under setting [2], the AC50 was 29.1 µM [rising, single point]. In the case of `NS(=O)(=O)c1ccc(CNS(=O)(=O)c2cccc3nonc23)cc1`, the cell number change stood at 0.387%. Consider `CS(=O)(=O)c1ccc(C(=O)OCC(=O)c2ccc(Cl)s2)cc1`, for which the cell number change is -62%. The AC50 under setting [1] was 29.1 µM [falling, single point]. `CCCNC(=O)c1cnc(Sc2ncc(C(F)(F)F)cc2Cl)n1C`: the cell number change is -17.7%. In addition, the AC50 under setting [2] is 6.51 µM [falling, single point]. As to `Cc1ccc(-c2cn3nc(C)c(C)nc3n2)cc1`, the AC50 under setting [2] is 4.11 µM [rising, partial curve]. As to `COc1ccc(OC)c(-c2csc(NC(=O)Cc3cc(OC)c(OC)c(OC)c3)n2)c1`, the cell number change amounted to 22.3%.

For `CCOC(=O)CSc1nc2ccccc2n1CC(=O)N(C(C)C)C(C)C`, the cell number change is -22.2%. Moreover, the AC50 under setting [2] was 20.6 µM [falling, partial curve]. Take `CN(CC(=O)Nc1cccc(F)c1)CC(=O)NC(c1ccccc1)c1ccccc1`: the cell number change is -6.45%. Under setting [2], the AC50 is 0.13 µM [rising, full curve, poor fit]. With `CCOc1ccc2nc(SC3CC(=O)N(c4ccc(OC)cc4)C3=O)sc2c1` (stereo unspecified), the cell number change is -22.9%. The AC50 under setting [2] is 14.6 µM [falling, partial curve, poor fit]. Take `COC(=O)c1c(NC(=O)CN2CCN(Cc3ccc4c(c3)OCO4)CC2)sc(C)c1C`: the cell number change was -72.8%. Moreover, the half-maximal activity concentration (AC50) under setting [1] is 14.6 µM [falling, partial curve]. For the same compound, the AC50 under setting [2] was 20.6 µM [falling, partial curve]. In the case of `Cc1ccc(C)c2[nH]c(=O)c(CCNC(=O)c3ccc4c(c3)OCO4)cc12`, the cell number change worked out at 137%. Moreover, under setting [1], the AC50 is 0.58 µM [rising, full curve]. Moreover, under setting [2], the AC50 is 0.731 µM [rising, partial curve]. Regarding `Cc1ccc2nc(N3CCN(Cc4ccc(F)cc4)C3=O)c(C)cc2c1`, the cell number change worked out at 72.8%. Besides, the AC50 under setting [1] was 14.6 µM [rising, partial curve]. Also, the AC50 under setting [2] is 5.8 µM [rising, single point]. For the compound `COc1ccc(OC)c(CNC(=O)C2CCC(=O)N2C(C)C)c1` (stereo unspecified), the cell number change stood at 3.19%. Take `CCOC(=O)CCn1c2nc(C)cc(C)c2c(=O)n1-c1ccccc1`: the cell number change came to 57.7%. For the same compound, under setting [1], the AC50 was 4.61 µM [rising, full curve]. Further, under setting [2], the AC50 is 8.2 µM [rising, partial curve].

For `CCn1nc(C(=O)NCCc2ccc(S(N)(=O)=O)cc2)c2ccccc2c1=O`, the cell number change was found to be 1.6%. In addition, the AC50 under setting [2] was 16.4 µM [falling, single point]. As for `O=C(c1ccc(NS(=O)(=O)c2cccs2)cc1)N1CCCCC1`, the cell number change was -22.6%. Besides, the AC50 under setting [2] is 20.6 µM [falling, single point]. Regarding `O=C(CCN1C(=O)S/C(=C\c2ccc(F)cc2)C1=O)Nc1ccc(O)cc1C(=O)O`, the AC50 under setting [2] was 6.51 µM [falling, single point]. Regarding `COc1ccc(-c2noc(CCC(=O)Nc3ccc4c(c3)OCCO4)n2)cc1`, the cell number change was found to be 26.7%. For the same compound, the AC50 under setting [1] is 0.00461 µM [rising, full curve, poor fit]. Also, the AC50 under setting [2] is 6.51 µM [rising, single point]. As to `Cc1cccc(OCCCCn2c(CO)nc3ccccc32)c1`, the cell number change worked out at 10.6%. In addition, the AC50 under setting [2] was 1.64 µM [rising, partial curve, poor fit]. As for `COc1ccc2c(c1)c(CC(=O)OCC(=O)N(C)C)c(C)n2C(=O)c1ccc(Cl)cc1`, the cell number change was -27.6%. In addition, the AC50 under setting [2] was 0.562 µM [rising, full curve, poor fit]. Take `O=C(CC1NCCNC1=O)OCc1ccccc1` (stereo unspecified): the cell number change was -27.9%. For the same compound, the concentration at half-maximal activity (AC50) under setting [2] was 29.1 µM [falling, single point]. Take `O=C(CCNC(=O)C1CCN(S(=O)(=O)c2ccccc2)CC1)NCc1cccc(Cl)c1`: the cell number change was -9.63%. The AC50 under setting [2] was 1.03 µM [rising, full curve]. Regarding `N#Cc1c(CSCC(=O)O)cc(=O)n2c1[nH]c1ccccc12`, the cell number change came out at 27.3%. Besides, the AC50 under setting [2] was 29.1 µM [rising, single point]. On to `CCc1ccc[n+](-c2[nH]c(=O)sc2/C=N/N=C(\[O-])c2cccnc2)c1`, for which the cell number change is -6.6%. On to `CC(Oc1ccccc1)C(=O)NC1CCCCCCC1` (stereo unspecified), for which the cell number change worked out at 9.38%. The AC50 under setting [2] was 16.4 µM [falling, single point]. As for `CSCCC(NC(=O)/C(=C\c1ccc(Cl)cc1)NC(=O)c1ccccc1)C(=O)O` (stereo unspecified), the cell number change was -15%. Further, the AC50 under setting [2] was 0.517 µM [falling, full curve]. For `COc1ccccc1COC(=O)N/C=C/c1ccco1`, the cell number change was determined as 23.4%. The AC50 under setting [1] was 0.58 µM [rising, full curve, poor fit]. In the case of `COc1cccc(C2CC(=O)NC(SC)=C2C#N)c1` (stereo unspecified), the cell number change worked out at 12.2%. For the same compound, under setting [2], the AC50 was 3.26 µM [rising, partial curve]. For `O=C(COC(=O)c1ccco1)NCC1CCCO1` (stereo unspecified), the cell number change stood at 19.8%. For the compound `COc1ccc(-c2[nH]ncc2CN2CCC(C(=O)N3CCOCC3)CC2)c(F)c1`, the cell number change is 11.3%. The AC50 under setting [2] was 6.51 µM [rising, partial curve]. Turning to `O=c1c2ccc(Cl)cc2[nH]c(=S)n1CCC1=CCCCC1`, the cell number change was -35.7%. Moreover, under setting [1], the AC50 was 4.61 µM [falling, full curve]. As to `CCCCOc1cccc(C(=O)Nc2ccc(NC(=O)c3ccco3)cc2)c1`, the cell number change was 19.1%. For the compound `O=C(/C=C/c1ccncc1)c1cc(Cl)ccc1O`, the cell number change was -65.8%. Moreover, the AC50 under setting [1] is 29.1 µM [falling, single point]. For the same compound, under setting [2], the AC50 is 29.1 µM [falling, single point]. As for `CCOC(=O)N1CCN(C(=S)NC(=O)c2nn(C)cc2Br)CC1`, the cell number change amounted to 18.3%. Moreover, the AC50 under setting [2] was 0.651 µM [rising, full curve, poor fit]. For the compound `Cc1c(C(=O)N2CCCC2)oc2ccc(Br)cc12`, the cell number change was found to be 7.93%. For the same compound, the AC50 under setting [2] was 29.1 µM [rising, single point]. Regarding `CN(C)c1ccc(C(CNS(=O)(=O)c2ccc([N+](=O)[O-])cc2)N2CCOCC2)cc1` (stereo unspecified), the cell number change was -45%. Further, the AC50 under setting [1] is 29.1 µM [falling, single point]. Moreover, under setting [2], the AC50 is 29.1 µM [falling, single point]. As for `O=C(Nc1cccc(F)c1)Nc1ccc2c(c1)CCC2`, the cell number change was -7.07%. Moreover, the AC50 under setting [2] was 0.164 µM [rising, partial curve, poor fit].
